# According to US12195755B2, “Placental lipid bilayer for cell-free molecular interaction studies” (priority 2019, dated 2025):
# Experiment: QCM-D interaction with supported placental lipid bilayers
# Set-up: species or system human
# Settings: for interaction with supported trophoblast bilayers compared to amBisome®: 0.1 mg/mL amphotericin B, QCM-D frequency and dissipation changes
Compound,interaction with supported trophoblast bilayers compared to amBisome®,interaction with supported trophoblast bilayers compared to amBisome® (listed as Amphotericin B),"adsorption to bilayers (DEHP 200 μM in 1% DMSO, HTR-8, TCL-1 and primary bilayers)"
C[C@@H]1[C@H](O)[C@@H](C)/C=C/C=C/C=C/C=C/C=C/C=C/C=C/[C@H](O[C@@H]2O[C@H](C)[C@@H](O)[C@H](N)[C@@H]2O)C[C@@H]2O[C@](O)(C[C@@H](O)C[C@@H](O)[C@H](O)CC[C@@H](O)C[C@@H](O)CC(=O)O[C@H]1C)C[C@H](O)[C@H]2C(=O)O [amphotericin B],interacts less,interacted more,
"CCCCC(CC)COC(=O)c1ccccc1C(=O)OCC(CC)CCCC (stereo not drawn) [DEHP, di(2-ethylhexyl) phthalate]",,,adsorbed to all three of the bilayers
